PubChem BioAssay AID686937, Drosophila RNAi Screening Center | 2013

Test: 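Knock-downs that reduce output of a secreted reporter enzyme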 (primary screen)
System: Drosophila S2 cells expressing secreted horseradish peroxidase
Knock-down reagent: long dsRNA against Drosophila genes
Timing: about 5.5 days (5 days dsRNA, then 12 h reporter induction)
Conditions: reporter expression induced after 5 days of dsRNA, read 12 h later; inducer not stated
Measurement: 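Chemiluminescent measurement of peroxidase in the medium 12 h after reporter induction, following 5 days of dsRNA, given as a z-score per plate; higher means more secretion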
Scale: z-score: higher = more reporter secreted into medium
The deposit covers about 23,000 reagents; this is an unselected part of those that have a named target and a result. 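Reduced-secretion tags in replicate 1 do not always agree with the z-scores; no criterion for assigning the tags was given.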 Not all columns of the deposit are shown. Not stated in the record: the amount of reagent.

Bmcp [DRSC10808] → z-score, replicate 1: 0.36
Gtpx [DRSC08221] → z-score, replicate 1: 0.53
Gtpx [DRSC22117] → z-score, replicate 1: -1.01
zen (zerknullt) [DRSC12632] → z-score, replicate 1: 0.44
PNPase (Polynucleotide phosphorylase) [DRSC14304] → z-score, replicate 1: 0.45
ppl (pumpless) [DRSC11899] → z-score, replicate 1: 0.24
CG31176 [DRSC15038] → z-score, replicate 1: 0.06
CG31176 [DRSC16021] → z-score, replicate 1: 0.3
Mnat9 (microtubule-associated Nat9) [DRSC14325] → z-score, replicate 1: 0.46
CG10600 [DRSC02074] → z-score, replicate 1: 0.26
alka (alkaliphile) [DRSC06136] → z-score, replicate 1: 0.44
Upf1 (Upf1 RNA helicase) [DRSC19667] → z-score, replicate 1: -0.01
SH3PX1 (SH3 and PX domain containing 1) [DRSC11139] → z-score, replicate 1: 0.41
Ir40a (Ionotropic receptor 40a) [DRSC03732] → z-score, replicate 1: 0.05
Ir40a (Ionotropic receptor 40a) [DRSC03733] → z-score, replicate 1: -6.82; phenotype, replicate 1: reduced secretion
nAChRbeta3 (nicotinic Acetylcholine Receptor beta3) [DRSC00325] → z-score, replicate 1: 0.43

2 entries from above, reformatted.
target,DRSC id,"z-score, replicate 1","phenotype, replicate 1"
Bmcp,DRSC10808,0.36,
Gtpx,DRSC08221,0.53,
